From article PMC5432348

The chains behind the UniProt entries cited, without tags or fusion partners.
UniProt P21926: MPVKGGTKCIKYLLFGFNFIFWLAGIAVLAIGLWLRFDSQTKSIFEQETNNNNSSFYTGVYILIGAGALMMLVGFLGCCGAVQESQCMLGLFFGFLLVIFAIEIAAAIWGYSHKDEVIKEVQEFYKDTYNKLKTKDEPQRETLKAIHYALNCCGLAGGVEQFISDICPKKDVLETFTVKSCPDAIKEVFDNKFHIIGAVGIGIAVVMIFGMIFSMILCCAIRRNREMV

T1: tetraspanin Co-029/tspan8 (UniProt P19075)
T1 sequence: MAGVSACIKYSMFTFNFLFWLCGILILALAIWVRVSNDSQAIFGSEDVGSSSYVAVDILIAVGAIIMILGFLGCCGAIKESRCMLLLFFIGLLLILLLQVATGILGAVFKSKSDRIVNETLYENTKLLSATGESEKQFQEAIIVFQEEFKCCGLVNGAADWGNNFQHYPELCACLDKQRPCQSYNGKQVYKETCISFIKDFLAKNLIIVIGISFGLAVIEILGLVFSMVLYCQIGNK

B1: SLC44A2 (protein, UniProt Q8IWA5 1-706)
chain: MGDERPHYYGKHGTPQKYDPTFKGPIYNRGCTDIICCVFLLLAIVGYVAVGIIAWTHGDPRKVIYPTDSRGEFCGQKGTKNENKPYLFYFNIVKCASPLVLLEFQCPTPQICVEKCPDRYLTYLNARSSRDFEYYKQFCVPGFKNNKGVAEVLQDGDCPAVLIPSKPLARRCFPAIHAYKGVLMVGNETTYEDGHGSRKNITDLVEGAKKANGVLEARQLAMRIFEDYTVSWYWIIIGLVIAMAMSLLFIILLRFLAGIMVWVMIIMVILVLGYGIFHCYMEYSRLRGEAGSDVSLVDLGFQTDFRVYLHLRQTWLAFMIILSILEVIIILLLIFLRKRILIAIALIKEASRAVGYVMCSLLYPLVTFFLLCLCIAYWASTAVFLSTSNEAVYKIFDDSPCPFTAKTCNPETFPSSNESRQCPNARCQFAFYGGESGYHRALLGLQIFNAFMFFWLANFVLALGQVTLAGAFASYYWALRKPDDLPAFPLFSAFGRALRYHTGSLAFGALILAIVQIIRVILEYLDQRLKAAENKFAKCLMTCLKCCFWCLEKFIKFLNRNAYIMIAIYGTNFCTSARNAFFLLMRNIIRVAVLDKVTDFLFLLGKLLIVGSVGILAFFFFTHRIRIVQDTAPPLNYYWVPILTVIVGSYLIAHGFFSVYGMCVDTLFLCFLEDLERNDGSAERPYFMSSTLKKLLNKTNKKAAES
B2: BCAM (protein, UniProt P50895 32-628)
chain: EVRLSVPPLVEVMRGKSVILDCTPTGTHDHYMLEWFLTDRSGARPRLASAEMQGSELQVTMHDTRGRSPPYQLDSQGRLVLAEAQVGDERDYVCVVRAGAAGTAEATARLNVFAKPEATEVSPNKGTLSVMEDSAQEIATCNSRNGNPAPKITWYRNGQRLEVPVEMNPEGYMTSRTVREASGLLSLTSTLYLRLRKDDRDASFHCAAHYSLPEGRHGRLDSPTFHLTLHYPTEHVQFWVGSPSTPAGWVREGDTVQLLCRGDGSPSPEYTLFRLQDEQEEVLNVNLEGNLTLEGVTRGQSGTYGCRVEDYDAADDVQLSKTLELRVAYLDPLELSEGKVLSLPLNSSAVVNCSVHGLPTPALRWTKDSTPLGDGPMLSLSSITFDSNGTYVCEASLPTVPVLSRTQNFTLLVQGSPELKTAEIEPKADGSWREGDEVTLICSARGHPDPKLSWSQLGGSPAEPIPGRQGWVSSSLTLKVTSALSRDGISCEASNPHGNKRHVFHFGTVSPQTSQAGVAVMAVAVSVGLLLLVVAVFYCVRRKGGPCCRQRREKGAPPPGEPGLSHSGSEQPEQTGLLMGGASGGARGGSGGFGDEC
B3: CD82 (protein, UniProt P27701 1-267)
chain: MGSACIKVTKYFLFLFNLIFFILGAVILGFGVWILADKSSFISVLQTSSSSLRMGAYVFIGVGAVTMLMGFLGCIGAVNEVRCLLGLYFAFLLLILIAQVTAGALFYFNMGKLKQEMGGIVTELIRDYNSSREDSLQDAWDYVQAQVKCCGWVSFYNWTDNAELMNRPEVTYPCSCEVKGEEDNSLSVRKGFCEAPGNRTQSGNHPEDWPVYQEGCMEKVQAWLQENLGIILGVGVGVAIIELLGMVLSICLCRHVHSEDYSKVPKY
B4: CYSTM1 (protein, UniProt Q9H1C7 1-97)
chain: MNQENPPPYPGPGPTAPYPPYPPQPMGPGPMGGPYPPPQGYPYQGYPQYGWQGGPQEPPKTTVYVVEDQRRDELGPSTCLTACWTALCCCCLWDMLT
B5: STX3 (protein, UniProt Q13277 1-289)
chain: MKDRLEQLKAKQLTQDDDTDAVEIAIDNTAFMDEFFSEIEETRLNIDKISEHVEEAKKLYSIILSAPIPEPKTKDDLEQLTTEIKKRANNVRNKLKSMEKHIEEDEVRSSADLRIRKSQHSVLSRKFVEVMTKYNEAQVDFRERSKGRIQRQLEITGKKTTDEELEEMLESGNPAIFTSGIIDSQISKQALSEIEGRHKDIVRLESSIKELHDMFMDIAMLVENQGEMLDNIELNVMHTVDHVEKARDETKKAVKYQSQARKKLIIIIVLVVVLLGILALIIGLSVGLN
B6: EVA1A (protein, UniProt Q9H8M9 1-152)
chain: MRLPLSHSPEHVEMALLSNILAAYSFVSENPERAALYFVSGVCIGLVLTLAALVIRISCHTDCRRRPGKKFLQDRESSSDSSDSEDGSEDTVSDLSVRRHRRFERTLNKNVFTSAEELERAQRLEERERIIREIWMNGQPEVPGTRSLNRYY
B7: NT5E (protein, UniProt P21589 27-549)
chain: WELTILHTNDVHSRLEQTSEDSSKCVNASRCMGGVARLFTKVQQIRRAEPNVLLLDAGDQYQGTIWFTVYKGAEVAHFMNALRYDAMALGNHEFDNGVEGLIEPLLKEAKFPILSANIKAKGPLASQISGLYLPYKVLPVGDEVVGIVGYTSKETPFLSNPGTNLVFEDEITALQPEVDKLKTLNVNKIIALGHSGFEMDKLIAQKVRGVDVVVGGHSNTFLYTGNPPSKEVPAGKYPFIVTSDDGRKVPVVQAYAFGKYLGYLKIEFDERGNVISSHGNPILLNSSIPEDPSIKADINKWRIKLDNYSTQELGKTIVYLDGSSQSCRFRECNMGNLICDAMINNNLRHTDEMFWNHVSMCILNGGGIRSPIDERNNGTITWENLAAVLPFGGTFDLVQLKGSTLKKAFEHSVHRYGQSTGEFLQVGGIHVVYDLSRKPGDRVVKLDVLCTKCRVPSYDPLKMDEVYKVILPNFLANGGDGFQMIKDELLRHDSGDQDINVVSTYISKMKVIYPAVEGRIKFS
B8: GPC1 (protein, UniProt P35052 24-530)
chain: DPASKSRSCGEVRQIYGAKGFSLSDVPQAEISGEHLRICPQGYTCCTSEMEENLANRSHAELETALRDSSRVLQAMLATQLRSFDDHFQHLLNDSERTLQATFPGAFGELYTQNARAFRDLYSELRLYYRGANLHLEETLAEFWARLLERLFKQLHPQLLLPDDYLDCLGKQAEALRPFGEAPRELRLRATRAFVAARSFVQGLGVASDVVRKVAQVPLGPECSRAVMKLVYCAHCLGVPGARPCPDYCRNVLKGCLANQADLDAEWRNLLDSMVLITDKFWGTSGVESVIGSVHTWLAEAINALQDNRDTLTAKVIQGCGNPKVNPQGPGPEEKRRRGKLAPRERPPSGTLEKLVSEAKAQLRDVQDFWISLPGTLCSEKMALSTASDDRCWNGMARGRYLPEVMGDGLANQINNPEVEVDITKPDMTIRQQIMQLKIMTNRLRSAYNGNDVDFQDASDDGSGSGSGDGCLDDLCSRKVSRKSSSSRTPLTHALPGLSEQEGQKTS
B9: TSPAN5 (protein, UniProt P62079 1-268)
chain: MSGKHYKGPEVSCCIKYFIFGFNVIFWFLGITFLGIGLWAWNEKGVLSNISSITDLGGFDPVWLFLVVGGVMFILGFAGCIGALRENTFLLKFFSVFLGIIFFLELTAGVLAFVFKDWIKDQLYFFINNNIRAYRDDIDLQNLIDFTQEYWQCCGAFGADDWNLNIYFNCTDSNASRERCGVPFSCCTKDPAEDVINTQCGYDARQKPEVDQQIVIYTKGCVPQFEKWLQDNLTIVAGIFIGIALLQIFGICLAQNLVSDIEAVRASW

What follows are binders tested against CD9 (human (endogenous in Isreco1)) (UniProt P21926) (assay: affinity purification with mass spectrometry; 1% Brij97 lysates of Isreco1 and Is1-Co029 cells cultured on collagen I (also on tissue culture plastic); beads coupled to mAb Ts9 (CD9) or TS29.2 (Co-029); SDS-PAGE, in-gel trypsin digestion, LC-MS/MS).

binding, binds:
B1
B2
B3
B4
B5
B6
B7
B8
B9

The binders below were run against T1, tetraspanin Co-029/tspan8 in the same assay as above.

binding, binds:
B1
B2
B3
B4
B5
B6
B7
B8
B9

Results are given in words; binding and its absence hold for the method and conditions named. Binding seen in cells or lysates may run through a third protein. A yes stands for co-enrichment or nearness to the bait. Other partners may have been found.
